Results deposited as PubChem BioAssay AID743121 (NCATS, 2013)
The whole screen tested about 26,000 reagents; below is a part drawn at random. In the full data, 167 (0.63%) were called active. 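Calls are per gene from RSA p-values that are not deposited; an individual active-marked siRNA can sensitise only weakly.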 Reagents against one gene are numbered here. Further read-outs or replicates are left out here.

Aim: 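Knock-downs that sensitise breast cancer cells to camptothecin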 (primary screen)
System: MDA-MB-231 cells, a human breast cancer line
Knock-down reagent: single siRNA against human genes, 20 nM siRNA (0.8 pmol per well)
Timing: 120 h (drug added 48 h after transfection, read 72 h later)
Challenge: camptothecin 20 nM (about EC30) for 72 h; vehicle 0.1% DMSO in parallel plates
Read-out: 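Cell viability by ATP luminescence (CellTiter-Glo) as % of non-targeting siRNA wells, and the log2 ratio of viability without drug over viability with camptothecin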
Direction: log2 vehicle/camptothecin viability: higher = stronger sensitisation to camptothecin
Active means: 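Each gene scored by redundant siRNA activity (RSA) over its individual siRNA ratios; a gene is called active at p < 0.001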

For CTNNB1 (catenin beta 1) #1, the entry reads log2 vehicle/camptothecin viability 0.222; inactive. With knock-down of CTNNB1 (catenin beta 1) #2, the screen gave log2 vehicle/camptothecin viability -0.358; inactive. CTNNB1 (catenin beta 1) #3 scored log2 vehicle/camptothecin viability -0.288; inactive. Silencing of FCN2 (ficolin 2) #1 gave: log2 vehicle/camptothecin viability -0.342; inactive. After knock-down of FCN2 (ficolin 2) #2, the record shows log2 vehicle/camptothecin viability -0.201; inactive. With knock-down of FCN2 (ficolin 2) #3 the results were log2 vehicle/camptothecin viability 0.0454; inactive.

Depletion of FCN2 (ficolin 2) #4 resulted in: log2 vehicle/camptothecin viability 0.274; inactive. SPAM1 (sperm adhesion molecule 1) #1 showed log2 vehicle/camptothecin viability -0.163; inactive. SPAM1 (sperm adhesion molecule 1) #2 scored log2 vehicle/camptothecin viability -0.0991; inactive. With knock-down of SPAM1 (sperm adhesion molecule 1) #3, the screen gave log2 vehicle/camptothecin viability -0.36; inactive. Knock-down of SPAM1 (sperm adhesion molecule 1) #4 gave: log2 vehicle/camptothecin viability 0.117; inactive. Depletion of CRY1 (cryptochrome circadian regulator 1) #1 gave: log2 vehicle/camptothecin viability 0.00869; inactive.

Silencing of CRY1 (cryptochrome circadian regulator 1) #2 gave: log2 vehicle/camptothecin viability 0.0394; inactive. CRY1 (cryptochrome circadian regulator 1) #3 scored log2 vehicle/camptothecin viability -0.00517; inactive. For CRY1 (cryptochrome circadian regulator 1) #4, the values are log2 vehicle/camptothecin viability 0.323; inactive. PHKB (phosphorylase kinase regulatory subunit beta) #1 showed log2 vehicle/camptothecin viability 0.029; inactive. Depletion of PHKB (phosphorylase kinase regulatory subunit beta) #2 came out at: log2 vehicle/camptothecin viability 0.183; inactive. For PHKB (phosphorylase kinase regulatory subunit beta) #3 the deposit lists log2 vehicle/camptothecin viability -0.169; inactive.

PHKB (phosphorylase kinase regulatory subunit beta) #4 showed log2 vehicle/camptothecin viability -0.435; inactive. STAG1 (STAG1 cohesin complex component) #1 gave log2 vehicle/camptothecin viability -0.0408; inactive. Depletion of STAG1 (STAG1 cohesin complex component) #2 came out at: log2 vehicle/camptothecin viability -0.262; inactive. STAG1 (STAG1 cohesin complex component) #3 scored log2 vehicle/camptothecin viability -0.0454; inactive. After knock-down of STAG1 (STAG1 cohesin complex component) #4, the screen gave log2 vehicle/camptothecin viability 0.27; inactive. After knock-down of PNCK (pregnancy up-regulated nonubiquitous CaM kinase) #1, the screen gave log2 vehicle/camptothecin viability -0.225; inactive.

After knock-down of PNCK (pregnancy up-regulated nonubiquitous CaM kinase) #2, the screen gave log2 vehicle/camptothecin viability -0.406; inactive. Silencing of PNCK (pregnancy up-regulated nonubiquitous CaM kinase) #3 gave: log2 vehicle/camptothecin viability -0.031; inactive. PNCK (pregnancy up-regulated nonubiquitous CaM kinase) #4 scored log2 vehicle/camptothecin viability -0.519; inactive.

Looked up above:
PNCK (pregnancy up-regulated nonubiquitous CaM kinase) #1, log2 vehicle/camptothecin viability = -0.225
For “outcome”, CTNNB1 (catenin beta 1) #3 is entered as inactive
Under “log2 vehicle/camptothecin viability”, PHKB (phosphorylase kinase regulatory subunit beta) #2 has 0.183
